Earlier results in patent publication US8163743B2, “4-carboxamide indazole derivatives useful as inhibitors of PI3-kinases” (GlaxoGroupLimited, priority 2008, dated 2012).
Read-outs that look alike come from different tables or passages of the source. At least one compound was matched to its structure with a doubt left.

Test system: Class I PI3-kinases
Conditions: cited from earlier work

Structure (SMILES)	IC50 (Fruman et al. 1998, read-out: IC50 against each of these PI3-kinases) [µM]	IC50 (background, literature, read-out: IC50 against each of the various Class I PI3-kinases) [µM]
O=c1cc(N2CCOCC2)oc2c(-c3ccccc3)cccc12 [LY294002]	15 to 20	
COC[C@H]1OC(=O)c2coc3c2[C@@]1(C)C1=C(C3=O)[C@@H]2CCC(=O)[C@@]2(C)C[C@H]1OC(C)=O [wortmannin]		0.001 to 0.01
